This is one part of the list.
molecular target: OsWRKY34 (Oryza sativa, UniProt Q0JBA9 1-250); assay: protein-binding microarray (RPBM); PBS, 2% BSA, 51.3 ng/ul salmon testes DNA, 50 uM zinc acetate, 200 nM TF, 25 C, 1 h; high values mean tight binding; details: protein: recombinant; tags: N-terminal polyhistidine and DsRed monomer fusion (pET32a); label: CyDye5-dUTP incorporated in the synthesized complementary strand; 3' TTTTT single-stranded linker to array surface; dsDNA, one strand shown
How it was run: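 Using Ni–NTA, transcription factors fused N-terminally to polyhistidine and DsRed were purified after expression in E. coli BL21-CodonPlus. These were incubated at 200 nM with a blocked, double-stranded custom Agilent array for 1 h at 25 °C in a buffer containing 50 µM zinc acetate, and the array was washed. The binding signal is per-feature fluorescence intensity (arbitrary units) on an Axon 4000B scanner.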

By UniProt entry, the sequences of proteins in these tests, tags left out.
UniProt Q0JBA9, entry or part of it: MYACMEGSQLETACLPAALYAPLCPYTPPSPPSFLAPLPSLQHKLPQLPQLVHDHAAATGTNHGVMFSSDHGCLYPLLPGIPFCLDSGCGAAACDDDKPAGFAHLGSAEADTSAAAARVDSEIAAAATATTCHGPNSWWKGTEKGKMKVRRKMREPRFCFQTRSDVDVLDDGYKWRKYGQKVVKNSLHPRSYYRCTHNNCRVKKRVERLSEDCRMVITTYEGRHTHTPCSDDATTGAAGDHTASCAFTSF

Row | Sequence | binding signal
1 | TCTCCTACGCGCTGCCGATCTTCTTCCGGGTGACGACGGCCGGAGTCACCTAGTGCAG | 10200 fluorescence intensity (a.u.)
2 | GGCAGCCATTTTTTCTTTTTTTTTTTCGCTCGTCGGAATTCGGAGTCACCTAGTGCAG | 8710 fluorescence intensity (a.u.)
3 | GATGATATCGACGACCGGAGAGGGGTGGGACGAGGAGATGCGGAGTCACCTAGTGCAG | 8290 fluorescence intensity (a.u.)
4 | ATTAGTGTCGTGTTGTATAGTTTTTTTTTCTTAATTTAATCGGAGTCACCTAGTGCAG | 12900 fluorescence intensity (a.u.)
5 | TTATACTTTCTCTTTTTTTCACGTGTATATTTTCTAAACCCGGAGTCACCTAGTGCAG | 9610 fluorescence intensity (a.u.)
6 | TCCTTTCCCCAGCATTTCCTCCCTTTTGTTTTTTGATGCACGGAGTCACCTAGTGCAG | 8980 fluorescence intensity (a.u.)
7 | TGGGTGGGTTGGGTGGGTGGGTGGGTGCGCGGCGGGTATGCGGAGTCACCTAGTGCAG | 32800 fluorescence intensity (a.u.)
8 | CCATTGAGGTTCTTTGCTTCCACCATTCGAAACACCCTCTCGGAGTCACCTAGTGCAG | 10600 fluorescence intensity (a.u.)
9 | GCCTTCTCTCTCCGGTTTTCTCTCTCTTCCACCTATGATTCGGAGTCACCTAGTGCAG | 8360 fluorescence intensity (a.u.)
10 | ACCTTTGGTTCCCGCCATTTCCTCCCAACCCATCCCCTCCCGGAGTCACCTAGTGCAG | 8500 fluorescence intensity (a.u.)
11 | AACTGTTTTGATTTTTTTTTCTCTGGTGTTTCATTGGCGTCGGAGTCACCTAGTGCAG | 14400 fluorescence intensity (a.u.)
12 | GGCTGCATCTTTATGGATCTCACATTGCATTGTCGTACTGCGGAGTCACCTAGTGCAG | 9300 fluorescence intensity (a.u.)
13 | CCTCCCTCACCGTCTTCCGCCTCGCCATCTCCAGCTCCGACGGAGTCACCTAGTGCAG | 10100 fluorescence intensity (a.u.)
14 | TAGCCCCAAATCGATTCCTCATCCTGCCCGATGCAAGTGCCGGAGTCACCTAGTGCAG | 8300 fluorescence intensity (a.u.)
15 | TTTTCTTGTTTTTAATTACTCTTATCTACTTGATATTTGCCGGAGTCACCTAGTGCAG | 11000 fluorescence intensity (a.u.)
16 | TTTACTACTTAACCCTGTCTAGTCTCTTATGACCAGCCGTCGGAGTCACCTAGTGCAG | 8510 fluorescence intensity (a.u.)
17 | CACCCAGAAATTCCCCGAGCCGTGCCGTCCAACACCACTCCGGAGTCACCTAGTGCAG | 9260 fluorescence intensity (a.u.)
18 | AGGCCATGTGAGTAACCGATACCCATATTCTCAACACATACGGAGTCACCTAGTGCAG | 8210 fluorescence intensity (a.u.)
19 | TAAGATAAACGGTCAAACATTTGCTAAAAAGTCAACGGTGCGGAGTCACCTAGTGCAG | 17300 fluorescence intensity (a.u.)
20 | GAAACGGAGGTGGTTGTTGTATTTAGTTAGTTCGCTACATCGGAGTCACCTAGTGCAG | 9760 fluorescence intensity (a.u.)
21 | TATTGTGTTTACTGGCTACAATGTTACCTATAGCTGCGATCGGAGTCACCTAGTGCAG | 8140 fluorescence intensity (a.u.)

Row | Sequence | binding signal
22 | CACAGATCCACTCCATTGCTTCACTACTGCTTTGCTTTTGCGGAGTCACCTAGTGCAG | 11000 fluorescence intensity (a.u.)
23 | ATGGTTATTTTTTATCGACGAGTAGGCCTACTTGTTCTGACGGAGTCACCTAGTGCAG | 8550 fluorescence intensity (a.u.)
24 | GGCCGGAGGAGGATATGTTGGGTCATGGTTTTGGCACGCTCGGAGTCACCTAGTGCAG | 9370 fluorescence intensity (a.u.)
25 | TAAATTCTGCCTGTTCTTTTTCAGATCTGCGCTCCGTGCTCGGAGTCACCTAGTGCAG | 10300 fluorescence intensity (a.u.)
26 | AACCCACAATTACGCGGCGGTGCATTCTCGTTGCTTTGACCGGAGTCACCTAGTGCAG | 11400 fluorescence intensity (a.u.)
27 | CGTTCGATCATCACCTCGTTTCTTGCTGAGATTATAGCCACGGAGTCACCTAGTGCAG | 8410 fluorescence intensity (a.u.)
28 | AACCTGTCATACACACACAACTTTTCAGTCACATCATCTCCGGAGTCACCTAGTGCAG | 8510 fluorescence intensity (a.u.)
29 | TAGTCAACGGATCACGAGAGATGTTCCCAGCCCTGTATTTCGGAGTCACCTAGTGCAG | 8040 fluorescence intensity (a.u.)
30 | AACTTGTTCTTGGCACACAGACACCAATACTCACATGCAACGGAGTCACCTAGTGCAG | 9180 fluorescence intensity (a.u.)
31 | GCTTAGTTACTCCTTATTTTTCGTTGGCACATTTTTCAAACGGAGTCACCTAGTGCAG | 9760 fluorescence intensity (a.u.)
32 | ATTTAACAAAACCAAAGCTTTTTTCCTTTTCTCTTGGATGCGGAGTCACCTAGTGCAG | 8030 fluorescence intensity (a.u.)
33 | TGTATTTTTCCTGTGGTTTTCCAATCCTATGTTTTTCATACGGAGTCACCTAGTGCAG | 12400 fluorescence intensity (a.u.)
34 | TTCGAACATTTTATAGCCGTTACACTCCCAATCTCCTCGTCGGAGTCACCTAGTGCAG | 8960 fluorescence intensity (a.u.)
35 | AAAGCTTACTACTGGTACTACTATTCTTGTACTCATATGTCGGAGTCACCTAGTGCAG | 8820 fluorescence intensity (a.u.)
36 | ATCTTCATCCTCAGTTTTTGCCCATTCTGAAACACGACTTCGGAGTCACCTAGTGCAG | 8630 fluorescence intensity (a.u.)
37 | ATCTCGCACCAACAAGTCCGCCGTCCGCGCGTCGTCAAATCGGAGTCACCTAGTGCAG | 9880 fluorescence intensity (a.u.)
38 | TGTTGAATGATATATCACATGCATATTTATTCTTTTTCTTCGGAGTCACCTAGTGCAG | 9050 fluorescence intensity (a.u.)
39 | CGCCCCTCCTGCCACCCGCTGCGGCAAGCGCTTTTTTGACCGGAGTCACCTAGTGCAG | 8740 fluorescence intensity (a.u.)
40 | GGCGCGTATTTTTCGTTTGGGCACGTATTTTTCGTTCTTTCGGAGTCACCTAGTGCAG | 9540 fluorescence intensity (a.u.)
41 | TCCCAACCCCATCCGCCTTGTTTTCCACGCGCACGCTTCCCGGAGTCACCTAGTGCAG | 9510 fluorescence intensity (a.u.)
42 | ACAAATCGGTCATTCTTGTCCACCACGCGTCAGTTTATCACGGAGTCACCTAGTGCAG | 10300 fluorescence intensity (a.u.)

Random excerpt: 3 records from the list
Row | Sequence | binding signal
36 | ATCTTCATCCTCAGTTTTTGCCCATTCTGAAACACGACTTCGGAGTCACCTAGTGCAG | 8630 fluorescence intensity (a.u.)
23 | ATGGTTATTTTTTATCGACGAGTAGGCCTACTTGTTCTGACGGAGTCACCTAGTGCAG | 8550 fluorescence intensity (a.u.)
28 | AACCTGTCATACACACACAACTTTTCAGTCACATCATCTCCGGAGTCACCTAGTGCAG | 8510 fluorescence intensity (a.u.)
